# Assay results as given in PubChem BioAssay AID624297 (National Center for Advancing Translational Sciences (NCATS), 2012).
# In all, about 340,000 compounds went through this assay and about 6,200 (1.8%) were called active. The shares of active, inactive and inconclusive entries below differ from those in the screen. Calls come from the whole dose curve; as a rule, active = well fitted activation curve with a large enough effect; inconclusive = small, poorly fitted or top-dose-only effect; inactive = no such curve, though single readings can be large or run the other way. Where the call is inconclusive, the potency comes from a doubtful curve fit.
# Test: A quantitative high throughput screen for small molecules that induce DNA re-replication in SW480 colon adenocarcinoma cells. For re-replication activation: % of control where 0% means no effect. Note: nearly all actives have a fitted effect of over 55% in size.
# Details: Hoechst DNA content imaging, 48 h; re-replication activation: at 46.1 µM (top of the series)
# How it was run: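 Treated cells incubate 48 hr (37 C, 5% CO2), are stained 40 min with Hoechst, and nuclear fluorescence is enumerated; a rise in nuclei with high DNA signal marks re-replication.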
# Potency is the fitted concentration of half-maximal effect.
Compound,Potency,re-replication activation
CCCCN1C(=O)C(NC(=O)CC(C)C)(C(F)(F)F)C2=C1CC(C)(C)CC2=O (configuration not stated),"inconclusive: 18.4 µM [activator, partial curve, poor fit]",
c1ccc(Nc2nc(-c3ccncc3)cs2)cc1,"inconclusive: 20.6 µM [activator, single point]",
Cc1ccc(-n2c(Cc3cccn3C)nnc2SCC(=O)N2CCc3ccccc32)cc1,,inactive: 7.67%
CSc1ccc(-c2nc(CSCC(=O)N3CCOCC3)c(C)o2)cc1,,inactive: -0.64%
COc1ccc(NC(=O)c2ccc(S(=O)(=O)C(F)F)cc2)c(OC)c1,"inconclusive: 32.6 µM [activator, single point]",
N/C(=N\OC(=O)c1ccc(F)cc1)c1nonc1N,"inconclusive: 6.51 µM [activator, single point]",
Cc1cc(C)nc(NN2C(=O)/C(=C/c3ccc(O)cc3)SC2=S)n1,,inactive: -0.216%
COc1ccc(N2C(=O)CC(Sc3n[nH]c(-c4cccc(C)c4)n3)C2=O)cc1 (configuration not stated),,inactive: -49.2%
CCCCN(C)CCN1C(=O)C2C(C(=O)Nc3ccc(Cl)cc3)C3C=CC2(O3)C1C(=O)NC1CCCCC1 (configuration not stated),,inactive: 12%
Cc1cccnc1NC(=O)Nc1cccc(Cl)c1,"inconclusive: 29.1 µM [activator, single point]",
COC(=O)c1c(NC(=O)CC2Nc3cc(C)c(C)cc3NC2=O)sc(C)c1C (configuration not stated),"inconclusive: 18.4 µM [activator, single point]",
COc1cccc(C#Cc2c(C=O)n(C)c3ccccc23)c1,active: 2.31 µM,
COc1ccc(-c2n[nH]c(=S)n2-c2ccc3c(c2)OCCO3)cc1OC,,inactive: -36.4%
CN(C(=O)COC(=O)c1ccccc1NCCO)C1CCS(=O)(=O)C1 (configuration not stated),,inactive: -10.5%
O=C(N/N=C/c1c(O)ccc2ccccc12)c1ccc[n+](CCO)c1,"inconclusive: 29.1 µM [activator, single point]",
Cc1ccc(C)c(OCCn2ccnc2)c1,"inconclusive: 14.6 µM [activator, single point]",
Cc1ccc(C)c(Cn2c(=O)n(CCCC(=O)NCc3ccco3)c(=O)c3ccccc32)c1,inactive,
Cc1cc(C)c(C(=O)/C=C/c2ccc3c(c2)OCO3)c(=O)[nH]1,"inconclusive: 23.1 µM [activator, single point]",
OCCC1CN(CC2CC2)CCN1Cc1ccc(F)c(F)c1 (configuration not stated),,inactive: 3.81%
Cc1ccc(Nc2nnc(SCC(=O)Nc3ncc(S(=O)(=O)c4ccc([N+](=O)[O-])cc4)s3)s2)cc1,"inconclusive: 0.146 µM [activator, full curve, poor fit]",
Cc1ccnc(NC(=O)C2CCN(S(=O)(=O)c3ccc4c(c3)CC(C)N4C(=O)C3CCC3)CC2)c1 (configuration not stated),"inconclusive: 29.1 µM [activator, partial curve, poor fit]",
COC(=O)C1=C(Nc2ccc(C)cc2)C=C(C)C(C(=O)OC)C1c1ccc(OC)cc1 (configuration not stated),active: 14.6 µM,
CCO[C@@H]1OC(C(=O)N2CCN(Cc3ccccc3)CC2)=C[C@H](c2csc3ccccc23)[C@H]1CCCO,"inconclusive: 6.51 µM [activator, partial curve, poor fit]",
CC(=O)Nc1ncc([N+](=O)[O-])s1,,inactive: 1.9%

Compound,Potency,re-replication activation
O=C1OCCN1C(=O)[C@H]1[C@H](c2ccc(Cl)cc2)C(c2ccc(F)cc2)=NN1c1ccc(Br)cc1,active: 20.6 µM,
CC1CCN(Cc2c(C(=O)N/N=C/c3ccc(C(F)(F)F)cc3)nnn2-c2nonc2N)CC1,"inconclusive: 18.4 µM [activator, single point]",
COc1ccc([C@H]2CC(=O)C=C(c3cccc(C(F)(F)F)c3)C2)cc1,,inactive: 3.13%
COc1ccc(C(=O)NC(=S)Nc2ccc(N3CCN(C(C)=O)CC3)cc2)cc1[N+](=O)[O-],,inactive: -2.43%
O=C1C(=O)N(CNc2ccccn2)c2ccccc21,active: 11.6 µM,
COc1ccc(C2=Nn3c(nnc3-c3ccccc3F)SC2)cc1OC1CCCC1,"inconclusive: 4.61 µM [activator, full curve]",
C/C(=N\NC(=O)c1c(Br)c(C)nn1C)c1cccc(NC(=O)C2CCC2)c1,,inactive: -3.24%
Cc1nc(-c2ccc(F)cc2)c(CC(=O)N(C)CC(=O)Nc2ccc(Cl)c(C(F)(F)F)c2)s1,"inconclusive: 18.4 µM [activator, single point]",
COc1cc2c(C#CCCCO)c(-c3ccc(C#N)cc3)oc(=O)c2cc1OC,"inconclusive: 20.6 µM [activator, partial curve, poor fit]",
CC(=O)c1cccc(NC(=O)N2CCCC2C(=O)NCc2ccc3c(c2)OCO3)c1 (configuration not stated),,inactive: -6.17%
COc1ccc(NC(=O)c2cc(C(C)C)on2)c(OC)c1,,inactive: -12.2%
O=C(Nc1ccc(O)cc1)c1cccc(Oc2ccc([N+](=O)[O-])cc2)c1,"inconclusive: 18.4 µM [activator, single point]",
CCOC(=O)c1c(C)n(C)c2ccc(OCC(O)Cn3c(C)nc4ccccc43)cc12 (configuration not stated),,inactive: 15.1%
CCOc1ccc(C(=O)O/N=C(\N)c2ccccn2)cc1,,inactive: -6.35%
COc1ccc(/C(N)=N/OC(=O)c2c(-c3ccccc3Cl)noc2C)cc1OC,"inconclusive: 25.9 µM [activator, single point]",
CCOC(=O)c1ccc(N2C(=O)C3C(C2=O)C(C(=O)c2ccc(Cl)cc2)N2CCCC32)cc1 (configuration not stated),"inconclusive: 25.9 µM [activator, single point]",
CSc1nnc2c3ccccc3n(Cc3ccccc3)c2n1,,inactive: -11.2%
CCCCn1c(CNC(=O)C(C)(C)C)nc2ccccc21,,inactive: -11.6%
CCc1nc2ccccc2c(C(=O)OCC(=O)N(CC(C)C)c2c(N)n(Cc3ccccc3)c(=O)[nH]c2=O)c1C,"inconclusive: 23.1 µM [activator, single point]",
O=S(=O)(c1ccccc1Br)N(CC(O)COCc1ccccc1)C1CC1 (configuration not stated),,inactive: -19.3%
CC(=O)Cc1nsc(NC(=O)c2ccc(-c3cccc(Cl)c3)o2)n1,"inconclusive: 29.1 µM [activator, single point]",
Cc1ccc(-n2c([S-])c(C(=O)Nc3ccc(OC(F)F)cc3)[n+]3ccc(C(=O)NCCO)cc23)cc1C,"inconclusive: 29.1 µM [activator, single point]",
Cc1ccccc1OCC(=O)Nc1nnc(-c2ccncc2)s1,"inconclusive: 11.6 µM [activator, partial curve]",
Cc1nc(C)c(-c2csc(Nc3ccc(C(=O)O)c(O)c3)n2)s1,,inactive: -7.91%

Compound,Potency,re-replication activation
Cc1nn(C)cc1/C=N/NC(=O)Cn1cncn1,,inactive: -53.6%
NC(=O)C(=O)N/N=C/c1cccc(C(F)(F)F)c1,,inactive: -1.31%
CCCOc1ccc(OCCOCCNCc2ccccc2)cc1,"inconclusive: 2.31 µM [activator, partial curve, poor fit]",
COc1ccc2c(c1)[nH]c1c(Cl)ncnc12,,inactive: -0.512%
CCN(CC(=O)NCc1ccc(F)cc1)C(=O)/C=C/c1ccc(OC)c(S(=O)(=O)NC(C)C)c1,active: 8.2 µM,
NCCCn1c(C(=O)c2ccc(Cl)cc2)c2ccc([N+](=O)[O-])cc2[n+]1[O-],"inconclusive: 23.1 µM [activator, single point]",
O=C(CCCCCCCC(=O)N1CCCCC1)N1CCCCC1,,inactive: -6.64%
Cc1cc(C)c(C)c(C(=O)CSc2nnc(-c3ccc4[nH]c(C)c(C)c4c3)o2)c1C,"inconclusive: 16.4 µM [activator, single point]",
Cc1ccccc1N(C(=O)c1snc(C(N)=O)c1N)C(C(=O)NCc1ccccc1)c1ccc(O)cc1 (configuration not stated),"inconclusive: 29.1 µM [activator, single point]",
CC(C)NC(=S)NC(=O)c1ccc(-c2ccccc2)cc1,"inconclusive: 5.8 µM [activator, full curve, poor fit]",
Cc1cnn(C(=S)NCc2ccc(Cl)cc2)c1,"inconclusive: 20.6 µM [activator, partial curve, poor fit]",
Cc1ccc(Nc2c(-c3ccccn3)nc3cccc(C)n23)cc1,,inactive: 1.3%
Cc1nc(N/N=C/c2cccc(F)c2)cc(N2CCOCC2)n1,"inconclusive: 29.1 µM [activator, single point]",
O=C(CSc1nnc2ccccn12)Nc1ccc2c(c1)OCCO2,"inconclusive: 4.11 µM [activator, single point]",
Cc1ccc(S(=O)(=O)Nc2cccc(C(=O)NCCN3CCOCC3)c2)cc1F,"inconclusive: 4.61 µM [activator, partial curve]",
O=C(CSc1nc(=O)n2ccccc2n1)N1CCN(c2ccccc2)CC1,"inconclusive: 14.6 µM [activator, single point]",
CN1CCN(NC(=O)c2cc(-c3ccc(Br)s3)nc3ccccc23)CC1,"inconclusive: 23.1 µM [activator, single point]",
CCc1nnc(NC(=O)CCN2C(=O)C3CCCCC3C2=O)s1 (configuration not stated),"inconclusive: 6.51 µM [activator, single point]",
Cc1cc(NC(=O)CSCC(=O)NC(C)c2ccccc2)no1 (configuration not stated),,inactive: -14.6%
Cc1cc(C)c2c(c1)/C(=N/NC(=O)c1cc(C)oc1C)CCC2,active: 2.91 µM,
O=C(CCc1ccccc1)N/N=C/c1cc(Br)ccc1O,"inconclusive: 16.4 µM [activator, single point]",
CCC/C(=C1/c2ccccc2C(=O)N1c1ccccc1)c1ccc2c(c1)OCCO2,"inconclusive: 20.6 µM [activator, single point]",
CC1=NN(C(=O)c2ccco2)C(O)(c2ccccc2)C1 (configuration not stated),"inconclusive: 18.4 µM [activator, single point]",
Cc1ccc(C)c(NC(=O)COC(=O)c2cc3ccccc3oc2=O)c1,,inactive: -6.29%

# Filtered by structure, the entries above with a Cl atom (10)
Compound,Potency,re-replication activation
CCCCN(C)CCN1C(=O)C2C(C(=O)Nc3ccc(Cl)cc3)C3C=CC2(O3)C1C(=O)NC1CCCCC1 (configuration not stated),,inactive: 12%
Cc1cccnc1NC(=O)Nc1cccc(Cl)c1,"inconclusive: 29.1 µM [activator, single point]",
O=C1OCCN1C(=O)[C@H]1[C@H](c2ccc(Cl)cc2)C(c2ccc(F)cc2)=NN1c1ccc(Br)cc1,active: 20.6 µM,
Cc1nc(-c2ccc(F)cc2)c(CC(=O)N(C)CC(=O)Nc2ccc(Cl)c(C(F)(F)F)c2)s1,"inconclusive: 18.4 µM [activator, single point]",
COc1ccc(/C(N)=N/OC(=O)c2c(-c3ccccc3Cl)noc2C)cc1OC,"inconclusive: 25.9 µM [activator, single point]",
CCOC(=O)c1ccc(N2C(=O)C3C(C2=O)C(C(=O)c2ccc(Cl)cc2)N2CCCC32)cc1 (configuration not stated),"inconclusive: 25.9 µM [activator, single point]",
CC(=O)Cc1nsc(NC(=O)c2ccc(-c3cccc(Cl)c3)o2)n1,"inconclusive: 29.1 µM [activator, single point]",
COc1ccc2c(c1)[nH]c1c(Cl)ncnc12,,inactive: -0.512%
NCCCn1c(C(=O)c2ccc(Cl)cc2)c2ccc([N+](=O)[O-])cc2[n+]1[O-],"inconclusive: 23.1 µM [activator, single point]",
Cc1cnn(C(=S)NCc2ccc(Cl)cc2)c1,"inconclusive: 20.6 µM [activator, partial curve, poor fit]",

# Reformatted with bars between the fields: entries from further up
Compound | Potency | re-replication activation
NCCCn1c(C(=O)c2ccc(Cl)cc2)c2ccc([N+](=O)[O-])cc2[n+]1[O-] | inconclusive: 23.1 µM [activator, single point] | 
CCc1nnc(NC(=O)CCN2C(=O)C3CCCCC3C2=O)s1 (configuration not stated) | inconclusive: 6.51 µM [activator, single point] | 
